The subject of the series is hamster acute ischemia-reperfusion model. Description: hamster acute ischemia-reperfusion model. Format: in vivo. As to conditions: average±SE, n=5, solvent administration group 53.6±3.6%. As for the experimental part:
A polyethylene tube was inserted into the carotid artery and the survical vein of Syrian male hamsters (10 to 13 weeks old) under pentobarbital anesthesia (60 mg/kg, i.p.). An electrocardiogram (I or II leading) was measured through a bioelectricity amplifier by leading from electrodes which had pierced the limbs. A polyethylene tube was inserted into the trachea, and artificial respiration was carried out with an artificial respirator (amount of ventilation: 10 ml/kg/stroke, number of times of ventilation: 70 strokes/min). The blood pressure was measured through a blood pressure amplifier, and the heart rate was measured with a heart rate unit using blood pressure as a trigger. […] Ischemia for 90 min was followed by reperfusion for 2 hr to quantitatively determine myocardial infarct size.
A sodium salt of the compound represented by formula (IV) was mixed with a 2-fold equivalent of arginine, and the mixture was dissolved in a 5% glucose solution. […] For each slice, the left ventricle (LV) was separated, and the weight of the left ventricle and the weight of the area-at-risk (AR) were measured. The area-at-risk was stained with a 50 mM Tris.HCl (pH 7.4, 37° C.) buffer containing 1.5% triphenyltetrazolium chloride heated at 37° C., and the weight of the infarct area (IS; infarct size) was measured. […]

Consider `O=C(NCC(NS(=O)(=O)c1ccccc1)C(=O)O)c1ccc(N2CCC(NC3=NCCCN3)CC2)c(F)c1` (stereo in doubt) [formula (IV), (2S)-Benzenesulfonylamino-3-[3-fluoro-4-{4-(1,4,5,6-tetrahydropyrimidin-2-ylamino)-piperidin-1-yl}benzoylamino]propionic Acid], for which the “ischemia area in the left ventricle (AR/LV)” value (group H 1.0 mg/kg+1.0 mg/kg/h) was 51.4±4.3% and the “ischemia area in the left ventricle (AR/LV)” value (group L 0.33 mg/kg+0.33 mg/kg/h) is 51.5±3.0%.

The record behind these values is patent US20030040531A1, “Remedies for reperfusion injury containing integrin alphanubeta 3 antagonist” (priority 2000, published 2003).
